Test results taken from PMC12126490, “The HP1 box of KAP1 organizes HP1α for silencing of endogenous retroviral elements in embryonic stem cells” (Nature Communications, 2025).

Tested on: FL HP1α and L139E/L150E HP1α (oligomeric states)
Test: mass photometry, HP1α oligomerization (Fig. 5c)
Design: species or system human
Settings: 50 mM Tris pH 7.5, 150 mM NaCl, 5 mM DTT, room temperature

Substance | molecular mass, maximum of the fit (10 nM) | molecular mass, maximum of the fit (50 nM)
L139E/L150E FL HP1α: β-sheet interface mutant of full-length HP1α | 50 kDa | 59 kDa
FL HP1α: Human full-length HP1α | 57 kDa | 72 kDa
